Measurements reported in PubChem BioAssay AID1508588 (Peter MacCallum Cancer Centre, 2020)
Purpose: 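Knock-downs boosting vemurafenib effects on melanoma cell growth or lactate release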 (primary screen). Cell system: human WM266.4 melanoma cells (BRAF V600 mutant). Reagents: siRNA pool against human genes, 40 nM. Timing: 96 h from transfection to read-out. Conditions: vemurafenib 300 nM (about IC25), added 48 h after transfection, for 48 h; comparison arm got DMSO vehicle only. Detection: 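Ratios to non-targeting siRNA for cell gain, counted as DAPI nuclei after minus before drug and averaged over two replicates, and for absorbance-read medium lactate per cell; both binned into fold-change classes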. Scale: cell gain with vemurafenib: higher = more cell gain than with non-targeting siRNA; lactate per cell with vemurafenib: higher = more lactate made per cell. Active means: 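a knock-down counts as enhancing when its fold-change classes with vehicle and with vemurafenib, taken together, show a stronger drug effect on cell gain or lactate per cell; exact class pairs not stated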. Meaning of the calls: active = enhances vemurafenib effect; inactive = no enhancement seen.
The deposit covers about 18,000 reagents; shown is an unselected part. 790 of all reagents (4.4%) were called active. 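Calls rest on a combination of fold-change classes in drug and vehicle arms, not all shown here.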 Unmarked entries are inactive. Some reagents were tested in more than one well and are listed for each.

gene | cell gain with vemurafenib | lactate per cell with vemurafenib
PTPRN | 0.19 | 1.08
USP39 | 0.17 | 0.77
LHX9 | 0.46 | 0.9
TAF9B | 0.43 | 0.64
CEP44 | 0.38 | 1.34
DUSP18 | 0.44 | 1.34
AHCY | 0.14 | 1.92
CHRM5 | 0.43 | 0.95
CHRM5 | 0.28 | 1.93
PADI6 | 0.38 | 1.36
ZBTB46 | 0.39 | 0.41
NCF1 | 0.52 | 1.29
P2RX6 | 0.48 | 0.73
ZBP1 | 0.61 | 0.6
YIF1A | 0.47 | 0.65
IRAK2 | 0.61 | 0.74
ABCG5 | 0.36 | 1.52
SORCS2 | 0.2 | 0.87
ADIPOR1 | 0.09 | 0.34
ZNF41 | 0.31 | 0.54
SMIM15 | 1.04 | 0.77
YBX2 | 1.09 | 0.77
KDM4C | 0.94 | 1
KCNJ3 | 0.73 | 0.6
SPIC | 0.92 | 0.86
NKX2-1 | 0.98 | 1.5
GPATCH2 | 0.66 | 0.83
DPP6 | 1.02 | 0.69
PIDD1 | 0.81 | 0.4
CABLES1 | 0.24 | 1.39
OR2M7 | 0.32 | 1.1
ARL8A | 0.33 | 0.78
MRM2 | 0.53 | 1.33
ABCA7 | 1.24 | 0.84
